Experimental data published in PubChem BioAssay AID493014 (National Center for Advancing Translational Sciences (NCATS), 2011).
The other results are listed elsewhere or left out. These are further read-outs of the screen, such as a control signal, another cell line or another target. No call is given for them. Compounds called inactive in the main read-out are mostly missing here. Words in brackets tell the shape of the fitted curve; partial curves, single points and poor fits give uncertain potencies.

Assay: qHTS Assay to Find Inhibitors of Chronic Active B-Cell Receptor Signaling
Details: ABC-DLBCL IkBa-CBG/CBR reporter, luminescence ratio (green luciferase fused to IkBa over red control in TMD8 lymphoma cells), 4 h
Outline: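 Cell line TMD8 (human ABC DLBCL), stably expressing tet-inducible CBG68-IkBa fusion and CBR; IMDM/0.5% FBS; cpd up to 46 uM; dox induction, 4 h, 37C/5% CO2; dual luminescence; green/red ratio; MG132 control.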

[1] = measured here: CBR red luminescence, cell number
[2] = measured here: IkBa-CBG green luminescence

SMILES	AC50 [1]	AC50 [2]
Cc1ccc(NC(=O)N/C=C/c2ccco2)cc1	29.1 µM [falling, single point]	–
Cc1cc(C(=O)N/N=C/c2ccc(C)o2)c2ccccc2n1	29.1 µM [rising, single point]	16.4 µM [falling, single point]
COC(=O)c1c(/N=C/NOCc2ccc(Cl)cc2)sc2c1CCN(c1ncc(C(F)(F)F)cc1Cl)C2	16.4 µM [rising, single point]	–
OC(COc1cccc2ccccc12)CN1CCN(c2cccc(Cl)c2)CC1 (stereo not given)	35.5 µM [falling, partial curve, poor fit]	–
CC(C)CN1C(=O)c2ccc(C(=O)Nc3c[nH]c(=O)[nH]c3=O)cc2C1=O	11.2 µM [rising, single point]	–
CCN(c1c(C)n(C)n(-c2ccccc2)c1=O)S(C)(=O)=O	7.31 µM [rising, partial curve, poor fit]	–
CC(C)(C)OC(=O)N[C@@H](Cc1ccccc1)c1nnc(S(=O)(=O)Cc2cccc(F)c2)o1	35.5 µM [falling, single point]	–
COc1ccc(NC(=O)CSc2nc(C)cc(C)n2)c([N+](=O)[O-])c1	0.708 µM [rising, full curve, poor fit]	–
CCCc1nn(C)c(C(=O)Nc2ccc3ccccc3c2)c1Cl	1.3 µM [rising, full curve]	29.1 µM [falling, single point]
O=C(COc1ccc(Cl)cc1Br)NNC(=O)C(=O)N1CCCCC1	32.6 µM [rising, partial curve, poor fit]	–
Oc1ccc(Br)cc1-c1cc(-c2ccccc2Cl)[nH]n1	3.55 µM [rising, full curve, poor fit]	–
CCn1c(=S)[nH]c2cc(S(=O)(=O)N3CCOCC3)ccc21	–	11.6 µM [falling, partial curve]
OCCN1CCN(CC/C=C2/c3ccccc3Sc3ccc(Cl)cc32)CC1	10.3 µM [falling, single point]	–
CC(OC(=O)CN1C(=O)c2ccccc2C1=O)C(=O)NC1(C#N)CCCCC1 (stereo not given)	18.4 µM [rising, partial curve, poor fit]	–
Cc1cc(C)c(C)c(OCC(=O)O/N=C(\N)c2ccccn2)c1	29.1 µM [falling, single point]	–
COc1ccc(-c2nn(-c3ccccc3)cc2/C=N/Nc2ccc(Cl)c(C(=O)O)c2)cc1OC	28.2 µM [falling, single point]	–
CCN(CC)CCCNc1cc2n(c(=O)n1)CCc1cc(OC)c(OC)cc1-2	12.6 µM [rising, single point]	–
CCOc1cc(CNCCc2c[nH]c3ccccc23)cc(Cl)c1OCC(N)=O	35.5 µM [falling, single point]	31.6 µM [rising, single point]
O=C(NC1CCCCC1)c1sc(=S)n2c1[nH]c(=O)c1ccccc12	1.12 µM [rising, full curve, poor fit]	–
Nc1ccccc1-c1nnn(CC(=O)Nc2ccc3c(c2)OCCO3)n1	20 µM [falling, single point]	–
C=CCNC(=S)NCC	5.62 µM [falling, single point]	–

No new results follow: an excerpt of the list.
SMILES	AC50 [1]	AC50 [2]
CCN(CC)CCCNc1cc2n(c(=O)n1)CCc1cc(OC)c(OC)cc1-2	12.6 µM [rising, single point]	–
CCOc1cc(CNCCc2c[nH]c3ccccc23)cc(Cl)c1OCC(N)=O	35.5 µM [falling, single point]	31.6 µM [rising, single point]
O=C(NC1CCCCC1)c1sc(=S)n2c1[nH]c(=O)c1ccccc12	1.12 µM [rising, full curve, poor fit]	–
Nc1ccccc1-c1nnn(CC(=O)Nc2ccc3c(c2)OCCO3)n1	20 µM [falling, single point]	–

(list continues)

SMILES	AC50 [1]	AC50 [2]
O=C(CN1CCN(C(=O)CNC(=O)c2ccc3c(c2)OCO3)CC1)Nc1cccc(F)c1	14.6 µM [rising, partial curve]	–
COc1ccc(Br)cc1C(=O)Nc1cc(C)cc(C)c1	6.31 µM [falling, single point]	–
CC1CCCCN1C(=O)C(Cc1ccccc1)N1C(=O)C2CCCCC2C1=O (stereo not given)	29.1 µM [rising, single point]	–
CCn1c(=N)n(CC(=O)c2ccc(OC)cc2)c2ccccc21	2 µM [rising, partial curve]	–
O=C1COc2ccc(C(=O)COC(=O)/C=C/c3ccco3)cc2N1	6.51 µM [rising, partial curve, poor fit]	–
Cc1cccc(NC(=O)CCCCCN2C(=O)[C@@H]3Cc4ccccc4CN3C2=O)c1	22.4 µM [falling, single point]	–
O=c1cc2oc3cc(O)c(O)cc3c(-c3ccccc3[N+](=O)[O-])c-2cc1O	14.1 µM [rising, partial curve]	–
COc1cc(C(=O)Nc2ccc(N(C)C)cc2)cc(OC)c1OC	2.51 µM [rising, full curve, poor fit]	–
CCn1c(COc2cccc(OC)c2)nnc1SCC(=O)Nc1cccc(OC)c1	29.1 µM [falling, single point]	–
CCc1c(C)c(C#N)c2nc3ccccc3n2c1NCc1ccco1	23.1 µM [falling, partial curve, poor fit]	–
COc1ccc(-c2nnc(NC(=O)c3cc(Cl)ccc3Cl)o2)cc1	1.84 µM [falling, partial curve]	–
Fc1ccccc1CNc1ccc(Cl)cc1	3.98 µM [rising, full curve]	–
COC(=O)c1ccc(-c2nc3cc(Cl)c(N)cc3s2)cc1	0.326 µM [falling, full curve, poor fit]	–
O=C(Nc1ccc(CN2CCOCC2)cc1)c1ccc(-c2cccc(Cl)c2)o1	25.1 µM [falling, single point]	–
CCOc1ccc(-c2cc(CCCC(=O)NCc3cccnc3)no2)cc1	3.26 µM [falling, partial curve]	–
O=C(NC(=S)Nc1ccc(Br)cc1)C1CCCCC1	0.708 µM [rising, full curve, poor fit]	–
CCCCN(C(=O)c1ccc(NC2CC2)c([N+](=O)[O-])c1)c1c(N)n(CCCC)c(=O)[nH]c1=O	32.6 µM [rising, partial curve, poor fit]	–
Cc1ccc2sc(N(CCCN(C)C)C(=O)c3ccc(S(=O)(=O)N(C)Cc4ccccc4)cc3)nc2c1C	29.1 µM [falling, single point]	–
Cn1nc(C(=O)Nc2cccc(S(N)(=O)=O)c2)c2ccccc2c1=O	10 µM [rising, partial curve, poor fit]	–
COC(=O)c1ccc2c(c1)N(C)S(=O)(=O)c1cnc(SCC(=O)C(C)(C)C)nc1-2	0.708 µM [rising, full curve, poor fit]	–
CC(C)(C)OC(=O)N1CC(O)CC1C(=O)OCC(=O)c1ccc(Cl)cc1 (stereo not given)	35.5 µM [rising, single point]	–

SMILES	AC50 [1]	AC50 [2]
COc1ccccc1C(=O)N1CCC(N2CCN(c3ccccc3)CC2)CC1	3.16 µM [falling, single point]	–
Cc1ccc(N(CC(=O)NC2CCCCC2)C(=O)CNC(=O)c2ccco2)cc1F	14.1 µM [falling, partial curve, poor fit]	–
Cc1ccc(-c2noc(-c3ccno3)n2)cc1	3.55 µM [rising, partial curve, poor fit]	–
Cc1ccccc1-n1nnnc1Sc1nnnn1-c1ccccc1	29.1 µM [falling, single point]	–
Cc1cccc(/C(N)=N/OC(=O)CCc2ccccc2)c1	3.16 µM [rising, partial curve, poor fit]	–
Cc1cccc(-n2c(CNC(=O)c3ccc(S(=O)(=O)N(C)C)cc3)nnc2SCC(=O)Nc2ccc(F)cc2)c1	29.1 µM [falling, single point]	–
COc1cc(C(F)(F)F)nc2ccc(C#CCOC(=O)Nc3ccccc3)cc12	7.08 µM [rising, partial curve, poor fit]	–
O=C(NCc1ccc(Cl)cc1Cl)C1CCN(S(=O)(=O)c2ccc3c(c2)OCCCO3)CC1	0.82 µM [rising, partial curve, poor fit]	–
Cc1ccc(-n2c(=O)c(C#N)cc3c(=O)n4cccc(C)c4nc32)cc1	29.1 µM [falling, single point]	–
C=CCOC(=O)C1=C(C)OC(N)=C(C#N)C1c1ccc(F)cc1 (stereo not given)	22.4 µM [falling, single point]	–
O=C(Oc1ccc(-c2cnc3ccccc3n2)cc1)c1ccc(Br)o1	0.103 µM [rising, full curve]	–
COc1ccccc1-c1oc2ccccc2c1-c1ccc2c(c1)OCO2	5.17 µM [rising, partial curve, poor fit]	–
COc1ccc(CN=C2NN=C(c3ccc(Cl)cc3)CS2)cc1	6.31 µM [falling, partial curve, poor fit]	–
COc1ccccc1/C=C1\SC(=S)N(CCC(=O)NCCCn2ccnc2)C1=O	3.98 µM [falling, full curve]	–
CCOc1ccc(C(c2c(NC(=O)c3ccccc3)sc(C)c2C)N2CCN(CCO)CC2)cc1 (stereo not given)	18.4 µM [falling, partial curve]	–
CC(=O)Oc1ccc(N(C(C)=O)S(=O)(=O)c2cccs2)c2ccccc12	29.1 µM [falling, single point]	–
COc1cc2c(cc1OC)-c1cc(Nc3ccc(F)cc3)nc(=O)n1CC2	2.51 µM [rising, partial curve, poor fit]	–
O=C(O)c1cccc(C(=O)c2cccc(C(=O)O)c2)c1	35.5 µM [falling, single point]	–
CC(NC(=O)c1ccc([N+](=O)[O-])cc1[N+](=O)[O-])c1ccc(-c2ccccc2)cc1 (stereo not given)	1.46 µM [falling, partial curve, poor fit]	–
CCOC(=O)Cn1c2[n+](c3ccccc31)CC(O)CS2 (stereo not given)	6.51 µM [falling, single point]	–
